SMILES strings stand for the structures. Some of the results follow. Repeats are few or missing, and single values can be far off.

In the test the test system is Geomyces destructans. The test is described as follows: growth inhibition relative to DMSO control; higher = stronger growth inhibition. To be noted: 10 µM; 15 °C; incubation time 10 days.
Turning to `O=c1c(-c2ccc(O)cc2)coc2cc(O)ccc12`, the growth inhibition is -1.11%. For `CCN1CCCC(OC(=O)C(c2ccccc2)c2ccccc2)C1` (stereo not drawn) the value was -7.98%; for `Nc1ccc(C(=O)O)cc1`, -39.1%.

For `CC(C)c1ccc2c(c1)CC[C@H]1[C@](C)(CN)CCC[C@]21C`, the growth inhibition is -11.7%. With `O=C(O)c1ccc(S(=O)(=O)N(Cl)Cl)cc1`, the growth inhibition is -1.59%. For the compound `O=C(Oc1ccccc1C(=O)O)c1ccccc1O`, the growth inhibition is -5.74%. In the case of `CCCCCNC(=N)N/N=C/c1c[nH]c2ccc(OC)cc12`, the growth inhibition was -11.5%. The same measure for `C/C1=C2/[N-][C@H]([C@H](CC(N)=O)[C@@]2(C)CCC(=O)NC[C@@H](C)OP(=O)([O-])O[C@H]2[C@@H](O)[C@@H](n3cnc4cc(C)c(C)cc43)O[C@@H]2CO)[C@]2(C)N=C(/C(C)=C3N=C(/C=C4N=C1[C@@H](CCC(N)=O)C\4(C)C)[C@@H](CCC(N)=O)[C@]\3(C)CC(N)=O)[C@@H](CCC(N)=O)[C@]2(C)CC(N)=O.[Co]`: -8.7%; for `O=C(CCc1ccc(O)cc1)c1c(O)cc(O)cc1O[C@@H]1OC(CO)[C@@H](O)[C@@H](O)C1O` (stereo partly drawn): -11.7%; for `COc1ccc(-c2coc3cc(O)ccc3c2=O)c(OC)c1O`: -9.24%.

Consider `CCCC1O[C@@H]2C[C@H]3[C@@H]4CCC5=CC(=O)C=C[C@]5(C)[C@H]4[C@@H](O)C[C@]3(C)[C@]2(C(=O)CO)O1` (stereo partly drawn), for which the growth inhibition was -14.7%.

As to `CCC/C=C/C=C/C1C[C@@H](O)[C@@H](O)C(=O)[C@H]1C=O` (stereo partly drawn), the growth inhibition is -6.12%.

Consider `C=C1C(=O)O[C@H]2C[C@@H]1C(OC(C)=O)C/C(C)=C/CC/C(C)=C/CC[C@@]2(C)O` (stereo partly drawn), for which the growth inhibition amounted to 1.06%.

With `CC(C)c1c(O)ccc2c1CC[C@H]1C(C)(C)CCC[C@]21C`, the growth inhibition is -2.22%. For `CC(C(=O)O)c1cccc(C(=O)c2ccccc2)c1` (stereo not drawn) the value was -9.6%. In the case of `CC1(O)/C=C\C=C(\CO)C2CC(C)(C)C2(O)CC1` (stereo not drawn), the growth inhibition is -35.9%. For `CCC(C(N)=O)c1ccccc1` (stereo not drawn), the growth inhibition was -24.4%. As for `COc1cc2c(cc1OC)C1(O)C(=O)c3ccc(O)c(C(=O)O)c3OC1CO2` (stereo not drawn), the growth inhibition is -11.9%.

With `CC1=CCC2C3(C)C1=CC(=O)OC3CC1C(C)(C)CC(O)C(O)C12C` (stereo not drawn) [MEROGEDUNIN, 3-DEOXO-1alpha,3alpha-DIHYDROXYDIHYDRO-], the growth inhibition is -9.65%. For `CC1(C)CC23C(=O)CCC(O)C2(C)CCC13` (stereo not drawn) the value was -5.57%.

Regarding `CC(C)=CC1C(CO)C1(C)C` (stereo not drawn), the growth inhibition is -5.18%.

As to `Cc1occc(=O)c1O`, the growth inhibition was -9.9%. For `C#C[C@]1(O)CC[C@H]2[C@@H]3CCc4cc(O)ccc4[C@H]3CC[C@@]21C` the value was -9.44%; for `CCCCCN(CCCCC)C(=O)C(CCC(=O)O)NC(=O)c1ccc(Cl)c(Cl)c1` (stereo not drawn), -25.4%. For `CC(C)NCC(O)c1ccc(O)c(O)c1` (stereo not drawn) the value was -1.29%; for `NCCSSCCN`, -3.09%. The same measure for `Nc1nc2c(ncn2COCCO)c(=O)[nH]1`: -6.38%. As for `CC1(C)C(=O)[C@H]2C[C@]3(O)C4=CC(=O)O[C@@H](c5ccoc5)[C@@]4(C)CCC3[C@](C)(C2=O)[C@H]1CC(=O)O` (stereo partly drawn), the growth inhibition is -11.1%. Regarding `Cc1ccc(C(C)C)c(O)c1C(=O)O`, the growth inhibition was 9.74%. For `COc1ccc(C(=O)CC(=O)c2ccc(C(C)(C)C)cc2)cc1` the value was -24.7%; for `C#CCCCCCCCCCCCC(O)CC(O)COC(C)=O` (stereo not drawn), -8.27%; for `CC1(C)C(=O)C=CC2(C)C1C=CC1(C)C2CCC2(C)C(c3ccoc3)OC(=O)C3OC312` (stereo not drawn), -6.49%. The same measure for `CC(=O)OCC(=O)[C@@]1(O)[C@H](C)C[C@H]2[C@@H]3CCC4=CC(=O)C=C[C@]4(C)[C@@]3(F)[C@@H](O)C[C@@]21C`: -5.29%. Turning to `COc1c(N2C[C@@H]3CCCN[C@@H]3C2)c(F)cc2c(=O)c(C(=O)O)cn(C3CC3)c12`, the growth inhibition was -28.8%. The same measure for `COc1ccc(C(=O)c2ccccc2)c(O)c1`: -11.4%. Consider `CCN(CC)CCOc1ccc2c(c1)C(=O)c1cc(OCCN(CC)CC)ccc1-2`, for which the growth inhibition is -7.48%.

On to `O=C(O)Cc1cc(I)c(Oc2cc(I)c(O)c(I)c2)c(I)c1`, for which the growth inhibition is -3.58%.

Regarding `COC(=O)CC1C(C)(C)C(OC(C)=O)[C@@H]2[C@@H](OC(C)=O)[C@]34O[C@@]2(O)[C@]1(C)C3CC[C@]1(C)C4=CC(=O)O[C@H]1c1ccoc1` (stereo partly drawn), the growth inhibition was -16.6%. For `NC[C@H]1O[C@H](O[C@H]2[C@H](O)[C@@H](O[C@H]3O[C@H](CO)[C@@H](O)[C@H](N)[C@H]3O)[C@H](N)C[C@@H]2N)[C@H](O)[C@@H](O)[C@@H]1O` the value was 4.52%; for `O=c1cc(-c2ccccc2)oc2cc(O)cc(O)c12`, -3.48%; for `Nc1c2c(nc3ccccc13)CCCC2`, -0.94%. Turning to `C/C(=C(\CCOP(=O)(O)O)SC(=O)c1ccccc1)N(C=O)Cc1cnc(C)nc1N`, the growth inhibition is -1.74%. The same measure for `C=C/C(C)=C\CC1C(C)(O)CCC2C(C)(C)CCCC21C` (stereo not drawn): -25.9%; for `CCN(CC)C(=S)SSC(=S)N(CC)CC`: -14.3%.

For the compound `C=C[C@@]1(C)CC(=O)[C@]2(O)[C@@]3(C)[C@@H](O)CCC(C)(C)[C@@H]3[C@H](O)[C@H](OC(C)=O)[C@@]2(C)O1`, the growth inhibition is -4.37%. With `CCN(CC)CCOC(=O)C(Cc1cccc2ccccc12)CC1CCCO1` (stereo not drawn), the growth inhibition was -8.96%. For the compound `CC1(C)S[C@@H]2[C@H](NC(=O)C(C(=O)O)c3ccccc3)C(=O)N2[C@H]1C(=O)O` (stereo partly drawn), the growth inhibition was -38.4%.

For `C[C@H](N)[C@H](O)c1cccc(O)c1`, the growth inhibition is 0.0807%. The same measure for `Cc1ccccc1OCC(O)CO` (stereo not drawn): -15%. For `O=C1CN(/N=C/c2ccc([N+](=O)[O-])o2)C(=O)N1` the value was -8.2%; for `COc1c(-c2ccccc2)oc2c(ccc3occc32)c1=O`, -2.02%; for `Cc1c(C(=O)O)c(O)cc2c1C(=O)c1c(O)c([C@@H]3O[C@H](CO)[C@@H](O)[C@H](O)[C@H]3O)c(O)c(O)c1C2=O`, -1.04%. As to `C=C[C@](C)(O)CCC=C(C)C`, the growth inhibition was -7.37%. Take `Cc1cc(NS(=O)(=O)c2ccc(N)cc2)no1`: the growth inhibition is -6.76%. In the case of `C=C[C@@H](C1=CC(=O)C(OC)=C(OC)C1=O)c1ccccc1`, the growth inhibition was determined as 14.4%. As for `O=C1CN(/N=C/c2ccc(-c3ccc([N+](=O)[O-])cc3)o2)C(=O)N1`, the growth inhibition was -18.7%. `C[C@@H]1C[C@H]2[C@@H]3CCC4=CC(=O)C=C[C@]4(C)[C@@]3(F)[C@@H](O)C[C@]2(C)[C@@]1(O)C(=O)COP(=O)(O)O`: the growth inhibition was -3.41%. For `C(=C\c1ccccc1)/CN1CCN(C(c2ccccc2)c2ccccc2)CC1` the value was -4.26%; for `COc1ccc(C(=O)c2ccccc2)c(O)c1O`, 36.7%; for `COc1ccc(-c2oc3cc(O[C@@H]4O[C@H](CO)[C@@H](O)[C@H](O)[C@H]4O)c(OC)c(O)c3c(=O)c2OC)cc1O`, -9.55%. Regarding `CC(C)[C@@H](C)/C=C/[C@@H](C)[C@H]1CC[C@H]2C3=CCC4CC(=O)CC[C@]4(C)[C@H]3CC[C@]12C` (stereo partly drawn), the growth inhibition was -6.28%.

Turning to `O=C(O)c1ccccc1C(=O)Nc1ccc(S(=O)(=O)Nc2nccs2)cc1`, the growth inhibition was -4.14%. For `C[N+](C)(C)CC(=O)O` the value was -12.7%. The same measure for `OCCN(CCO)c1nc(N2CCCCC2)c2nc(N(CCO)CCO)nc(N3CCCCC3)c2n1`: -4.98%; for `CN1CCN(C(c2ccccc2)c2ccccc2)CC1`: -18.1%. For `C[C@]12CC[C@@H]3c4ccc(OC(=O)c5ccccc5)cc4CC[C@H]3[C@@H]1CC[C@@H]2O` the value was -13.7%; for `C[C@H](CCC(=O)O)[C@H]1CC[C@H]2[C@@H]3[C@@H](O)C[C@@H]4C[C@H](O)CC[C@]4(C)[C@H]3CC[C@]12C`, -30.1%. Consider `N[C@@H](Cc1cc(I)c(Oc2ccc(O)c(I)c2)c(I)c1)C(=O)O`, for which the growth inhibition is -29.4%. For the compound `CN1CCC(=C2c3ccccc3Sc3ccccc32)CC1`, the growth inhibition was -36.3%. The same measure for `Nc1c2ccccc2nc2ccccc12`: -2.1%; for `NS(=O)(=O)c1cc2c(cc1C(F)(F)F)NCNS2(=O)=O`: -1.44%. For `N[C@@H](Cc1c[nH]c2ccccc12)C(=O)O` the value was -20.7%; for `O=C(/C=C/c1ccc(O)cc1)c1ccc(O)cc1O`, 13.3%. The same measure for `Cc1c(NC(=O)c2cccnc2)c(=O)n(-c2ccccc2)n1C`: -6.61%; for `CS(=O)(=O)OCCCCOS(C)(=O)=O`: 5.34%.

Regarding `Cc1cc(O)c(C=O)c(O)c1C(=O)O`, the growth inhibition is -3.77%. For `CC[C@@H]1C(=O)OC[C@@H]1Cc1cncn1C` the value was -16.5%. As for `CN1C(=O)CC[C@H]1c1cccnc1`, the growth inhibition is -9.93%. As to `CC(=O)N[C@H]1[C@H]([C@H](O)[C@H](O)CO)OC(O)(C(=O)O)C[C@@H]1O` (mixture of isomers), the growth inhibition is -2.59%. As to `COc1cc(OC)c2c(c1Cl)O[C@@]1(C(=O)CC(=O)C[C@H]1C)C2=O`, the growth inhibition is -8.99%. As for `CC(=O)OCC(=O)[C@@]12OC(C)(C)O[C@@H]1C[C@H]1[C@@H]3C[C@H](F)C4=CC(=O)C=C[C@]4(C)[C@@]3(F)[C@@H](O)C[C@@]12C`, the growth inhibition was 6.35%. The same measure for `c1ccc2c(CC3=NCCN3)cccc2c1`: -22.2%; for `COC(=O)C1=CO[C@@H](C)[C@H]2CN3CCc4c([nH]c5ccccc45)[C@@H]3C[C@H]12`: -3.64%; for `COC(=O)C[C@H]1C(C)(C)[C@H](O)[C@@H]2CC3=C4CC(O)O[C@@H](c5ccoc5)[C@@]4(C)CCC3[C@]1(C)C2=O` (stereo partly drawn) [3,16-DIDEOXYMEXICANOLIDE-3alpha-DIOL]: -2.38%. The same measure for `CCN(CC)CC(=O)Nc1c(C)cccc1C`: -24.1%; for `NS(=O)(=O)c1cc2c(cc1Cl)NC(C1CC3C=CC1C3)NS2(=O)=O` (stereo not drawn): -19.2%.

Turning to `O=C1NS(=O)(=O)c2ccccc21`, the growth inhibition is -0.46%. The same measure for `CC(=O)CC(c1ccccc1)c1c(O)c2ccccc2oc1=O` (stereo not drawn): -32.7%; for `O=c1oc2c(O)c(O)cc3c(=O)oc4c(O)c(O)cc1c4c23`: -6.24%; for `O=C(O[C@@H]1Cc2c(O)cc(O)cc2O[C@@H]1c1cc(O)c(=O)c2c(O)c(O)cc([C@H]3Oc4cc(O)cc(O)c4C[C@H]3OC(=O)c3cc(O)c(O)c(O)c3)c2c1)c1cc(O)c(O)c(O)c1`: -8.19%. For `CC(=O)O[C@H]1C[C@@]2(C)[C@H](c3ccoc3)OC(=O)[C@H]3O[C@]32[C@@]2(C)C1[C@]1(C)C(C[C@H]2OC(C)=O)C(C)(C)[C@H](OC(C)=O)C[C@@H]1OC(C)=O` (stereo partly drawn) [11alpha-ACETOXYKHIVORIN] the value was -24.2%; for `CC(=O)NS(=O)(=O)c1ccc(N)cc1`, -23.3%; for `C=C1CC[C@@H]2[C@](C)(CO)[C@H](O)CC[C@@]2(C)[C@@H]1C/C=C1/C(=O)OC[C@H]1O`, -11.4%.

(Values after the supplement of paper PMC3047530.)
